The record followed here is paper PMC6168688.

The target in assay [1] is T1, AtNOC2, full length, BiFC fusion (pBiFP1-4) (A. thaliana) (UniProt Q9ZPV5).
T1 sequence: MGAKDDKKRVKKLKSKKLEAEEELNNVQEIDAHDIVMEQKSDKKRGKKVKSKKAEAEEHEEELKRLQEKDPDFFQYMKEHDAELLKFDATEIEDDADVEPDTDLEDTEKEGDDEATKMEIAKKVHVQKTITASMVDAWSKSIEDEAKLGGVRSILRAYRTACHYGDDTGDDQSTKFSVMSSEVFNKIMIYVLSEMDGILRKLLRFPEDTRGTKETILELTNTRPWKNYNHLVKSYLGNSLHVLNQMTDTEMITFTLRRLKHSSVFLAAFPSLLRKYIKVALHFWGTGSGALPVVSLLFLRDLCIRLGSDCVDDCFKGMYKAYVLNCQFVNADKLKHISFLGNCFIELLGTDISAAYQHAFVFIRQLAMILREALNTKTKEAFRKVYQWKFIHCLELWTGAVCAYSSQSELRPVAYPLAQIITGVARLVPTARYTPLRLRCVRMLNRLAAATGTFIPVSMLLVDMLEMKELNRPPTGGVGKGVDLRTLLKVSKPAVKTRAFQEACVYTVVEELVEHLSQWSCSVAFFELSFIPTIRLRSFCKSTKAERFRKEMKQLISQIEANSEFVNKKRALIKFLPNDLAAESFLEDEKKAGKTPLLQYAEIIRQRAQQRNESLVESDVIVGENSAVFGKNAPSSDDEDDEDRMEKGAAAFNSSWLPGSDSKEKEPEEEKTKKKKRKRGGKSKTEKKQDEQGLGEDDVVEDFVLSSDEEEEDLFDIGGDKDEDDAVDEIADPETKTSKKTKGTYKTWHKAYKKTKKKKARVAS
Kind of assay: split reporter; BiFC: two A. thaliana NOC proteins fused to N-term or C-term regions of YFP, transient coexpression in epidermal cells of N. benthamiana leaves, with H2B-mRFP or FIB-mRFP marker.

The target of assay [2] is T2, REBELOTE (RBL), full length, BiFC fusion (pBiFP1-4) (A. thaliana) (UniProt Q0WVH0).
T2 sequence: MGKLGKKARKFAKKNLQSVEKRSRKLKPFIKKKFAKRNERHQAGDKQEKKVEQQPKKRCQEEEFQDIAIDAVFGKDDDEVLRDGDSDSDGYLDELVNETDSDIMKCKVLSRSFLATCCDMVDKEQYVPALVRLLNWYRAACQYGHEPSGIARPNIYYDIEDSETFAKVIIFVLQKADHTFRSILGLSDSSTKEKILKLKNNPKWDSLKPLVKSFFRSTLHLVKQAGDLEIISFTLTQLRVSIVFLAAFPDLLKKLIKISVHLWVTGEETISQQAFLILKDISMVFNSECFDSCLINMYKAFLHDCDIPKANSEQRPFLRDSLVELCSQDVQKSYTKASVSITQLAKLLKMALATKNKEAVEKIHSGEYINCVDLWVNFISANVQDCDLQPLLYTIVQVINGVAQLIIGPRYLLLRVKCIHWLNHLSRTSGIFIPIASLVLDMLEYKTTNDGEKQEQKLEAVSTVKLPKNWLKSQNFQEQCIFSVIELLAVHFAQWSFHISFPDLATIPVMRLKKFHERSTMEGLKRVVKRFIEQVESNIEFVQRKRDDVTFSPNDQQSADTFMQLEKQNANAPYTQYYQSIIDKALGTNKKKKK
The description is as above.

Assay [3] concerns the target T3, AtNOC2, full length, yeast two-hybrid matrix fusion (pPC86/pPC97) (A. thaliana) (UniProt Q9ZPV5).
T3 sequence: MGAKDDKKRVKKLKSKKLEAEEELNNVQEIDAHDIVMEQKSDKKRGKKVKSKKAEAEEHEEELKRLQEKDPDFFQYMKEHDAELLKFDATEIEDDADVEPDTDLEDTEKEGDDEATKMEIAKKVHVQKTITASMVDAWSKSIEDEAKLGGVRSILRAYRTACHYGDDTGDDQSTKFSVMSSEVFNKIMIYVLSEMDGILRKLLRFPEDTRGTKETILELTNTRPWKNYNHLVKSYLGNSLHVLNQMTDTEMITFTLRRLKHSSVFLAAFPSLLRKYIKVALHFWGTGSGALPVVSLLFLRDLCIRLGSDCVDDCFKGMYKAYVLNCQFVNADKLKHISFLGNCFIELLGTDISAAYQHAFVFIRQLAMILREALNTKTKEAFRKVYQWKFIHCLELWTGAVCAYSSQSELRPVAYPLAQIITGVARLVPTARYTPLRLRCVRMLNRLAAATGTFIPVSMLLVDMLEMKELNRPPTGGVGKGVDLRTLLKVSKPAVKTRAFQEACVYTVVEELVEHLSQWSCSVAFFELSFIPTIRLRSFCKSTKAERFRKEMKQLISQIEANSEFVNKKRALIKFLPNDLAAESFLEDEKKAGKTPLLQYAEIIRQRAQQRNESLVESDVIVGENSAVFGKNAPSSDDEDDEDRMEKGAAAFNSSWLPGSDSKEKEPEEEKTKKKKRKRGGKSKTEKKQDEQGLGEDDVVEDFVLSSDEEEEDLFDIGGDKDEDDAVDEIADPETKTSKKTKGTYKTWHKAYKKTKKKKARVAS
Kind of assay: two-hybrid; A. thaliana NOC proteins tested two by two, in both directions, pPC86- and pPC97-based vectors; growth on SD-HTL selective media (10-3 dilution).

No constants are given. Whether binding was seen depends on the method and setting. For some assays here: Binding seen in cells or lysates may run through a third protein. Some entries that bind do so weakly or less than the wild type. Sequences can lack the tags named with a protein.

B1: REBELOTE (RBL), full length, BiFC fusion (pBiFP1-4) (protein, UniProt Q0WVH0 1-594)
chain: MGKLGKKARKFAKKNLQSVEKRSRKLKPFIKKKFAKRNERHQAGDKQEKKVEQQPKKRCQEEEFQDIAIDAVFGKDDDEVLRDGDSDSDGYLDELVNETDSDIMKCKVLSRSFLATCCDMVDKEQYVPALVRLLNWYRAACQYGHEPSGIARPNIYYDIEDSETFAKVIIFVLQKADHTFRSILGLSDSSTKEKILKLKNNPKWDSLKPLVKSFFRSTLHLVKQAGDLEIISFTLTQLRVSIVFLAAFPDLLKKLIKISVHLWVTGEETISQQAFLILKDISMVFNSECFDSCLINMYKAFLHDCDIPKANSEQRPFLRDSLVELCSQDVQKSYTKASVSITQLAKLLKMALATKNKEAVEKIHSGEYINCVDLWVNFISANVQDCDLQPLLYTIVQVINGVAQLIIGPRYLLLRVKCIHWLNHLSRTSGIFIPIASLVLDMLEYKTTNDGEKQEQKLEAVSTVKLPKNWLKSQNFQEQCIFSVIELLAVHFAQWSFHISFPDLATIPVMRLKKFHERSTMEGLKRVVKRFIEQVESNIEFVQRKRDDVTFSPNDQQSADTFMQLEKQNANAPYTQYYQSIIDKALGTNKKKKK
For the molecule B1, the binding result in assay [1] and in assay [2] was “binds” throughout.

B2: REBELOTE (RBL), full length, yeast two-hybrid matrix fusion (pPC86/pPC97) (protein, UniProt Q0WVH0 1-594)
chain: MGKLGKKARKFAKKNLQSVEKRSRKLKPFIKKKFAKRNERHQAGDKQEKKVEQQPKKRCQEEEFQDIAIDAVFGKDDDEVLRDGDSDSDGYLDELVNETDSDIMKCKVLSRSFLATCCDMVDKEQYVPALVRLLNWYRAACQYGHEPSGIARPNIYYDIEDSETFAKVIIFVLQKADHTFRSILGLSDSSTKEKILKLKNNPKWDSLKPLVKSFFRSTLHLVKQAGDLEIISFTLTQLRVSIVFLAAFPDLLKKLIKISVHLWVTGEETISQQAFLILKDISMVFNSECFDSCLINMYKAFLHDCDIPKANSEQRPFLRDSLVELCSQDVQKSYTKASVSITQLAKLLKMALATKNKEAVEKIHSGEYINCVDLWVNFISANVQDCDLQPLLYTIVQVINGVAQLIIGPRYLLLRVKCIHWLNHLSRTSGIFIPIASLVLDMLEYKTTNDGEKQEQKLEAVSTVKLPKNWLKSQNFQEQCIFSVIELLAVHFAQWSFHISFPDLATIPVMRLKKFHERSTMEGLKRVVKRFIEQVESNIEFVQRKRDDVTFSPNDQQSADTFMQLEKQNANAPYTQYYQSIIDKALGTNKKKKK
B2: the binding result in assay [3] is “binds”.

B3: AtNOC2, full length, yeast two-hybrid matrix fusion (pPC86/pPC97) (protein, UniProt Q9ZPV5 1-764)
chain: MGAKDDKKRVKKLKSKKLEAEEELNNVQEIDAHDIVMEQKSDKKRGKKVKSKKAEAEEHEEELKRLQEKDPDFFQYMKEHDAELLKFDATEIEDDADVEPDTDLEDTEKEGDDEATKMEIAKKVHVQKTITASMVDAWSKSIEDEAKLGGVRSILRAYRTACHYGDDTGDDQSTKFSVMSSEVFNKIMIYVLSEMDGILRKLLRFPEDTRGTKETILELTNTRPWKNYNHLVKSYLGNSLHVLNQMTDTEMITFTLRRLKHSSVFLAAFPSLLRKYIKVALHFWGTGSGALPVVSLLFLRDLCIRLGSDCVDDCFKGMYKAYVLNCQFVNADKLKHISFLGNCFIELLGTDISAAYQHAFVFIRQLAMILREALNTKTKEAFRKVYQWKFIHCLELWTGAVCAYSSQSELRPVAYPLAQIITGVARLVPTARYTPLRLRCVRMLNRLAAATGTFIPVSMLLVDMLEMKELNRPPTGGVGKGVDLRTLLKVSKPAVKTRAFQEACVYTVVEELVEHLSQWSCSVAFFELSFIPTIRLRSFCKSTKAERFRKEMKQLISQIEANSEFVNKKRALIKFLPNDLAAESFLEDEKKAGKTPLLQYAEIIRQRAQQRNESLVESDVIVGENSAVFGKNAPSSDDEDDEDRMEKGAAAFNSSWLPGSDSKEKEPEEEKTKKKKRKRGGKSKTEKKQDEQGLGEDDVVEDFVLSSDEEEEDLFDIGGDKDEDDAVDEIADPETKTSKKTKGTYKTWHKAYKKTKKKKARVAS
Consider B3, for which the binding entry in assay [3] is on record as “binds”.

B4: SLOW WALKER 2 (SWA2), full length, BiFC fusion (pBiFP1-4) (protein, UniProt F4IDC2 1-1043)
chain: MSKIKPLSKSSQDLSLLTSDIASFASSIGLASALPSSGFNDTDFRKPAKSKTQKRKKPKKDQQHKDEDEEGEPKSNIGNEKGKDFGARKQNKDAPVKQTLQPKPKPGFLSIDDESTGYKKKRFDEFKSLPKLPLVKASLLSSEWYNDAAEFEEKVFGGRKVAVANKEDFKGVVEKKRELGERLMWQYAEDFATSKGKGGDMKMVISAQKSGTVADKITAFEIMVGENPIANMRSLDALLGMVTSKVGKRFAFKGLKALSEILIRLLPDRKLKSLLQRPLNIIPENKDGYSLLLFWYWEDCLKQRYERFVTALDESSKDMLPELKDKALKTIYFMLTSKSEQERKLLVSLVNKLGDPQNKSASNADYHLTNLLADHPNMKAVVIDEVDSFLFRPHLGLRAKYHAVNFLSQIRLSHKGEDPKVAKRLIDVYFALFKVLTTEANRKQGADDKGAADKKKSNPKDTKQEVSTDSPIELDSRILSALLTGVNRAFPYVSTDEADDIIESQTPVLFKLVHSANFNVGVQSLMLLDKISSKNKIVSDRFYRALYSKLLLPSAMNSSKAEMFIGLLLRAMKNDINIKRVAAFSKRVLQVALQQPPQYACGCLFLLSEVLKSRPPLWKMVVQRESVEEEEDIEHFEDVIEGDDVDPNKKAENDENVVEVDHDGVEKSSRDGDSSSDDEEALAIRLSDEEDDNASDDSEELIRNETPQLEEVMEVSNDMEKRSQPPMRPSSLPGGYDPRHREPSYCNADRASWWELGVLSKHAHPSVATMAGTLLSGTNIVYNGNPLNDLSLTAFLDKFMEKKPKQNTWHGGSQIEPSKKLDMSNRVIGAEILSLAEGDVAPEDLVFHKFYVNKMTSTKQSKKKKKKKLPEEEAAEELYDVNDGDGGENYDSDVEFEAGDESDNEEIENMLDDVDDNAVEEEGGEYDYDDLDGVAGEDDEELVADVSDAEMDTDMDMDLIDDEDDNNVDDDGTGDGGDDDSDGDDGRSKKKKKEKRKRKSPFASLEEYKHLIDQDEKEDSKTKRKATSEPTKKKKKKKSKASE
For B4, the binding result in assay [1] and in assay [2] was “binds” in each case.

B5: AtNOC3, full length, BiFC fusion (pBiFP1-4) (protein, UniProt F4IDJ0 1-830)
chain: MGKNRRKQKVIPPPLLPPDVAEEDIEFSDEDLKYVKENTDYAQFVSQIDTAAINKQCGGRVMTVEDKYEEERSKRKTLQEEKGNGEILVDPVDVLPVKTLDGKLHYRTESKKSKLAEAETDEAEKDVLEDEHVLNKSQRREKAKKSKREAKKHEKDLPDEILQEEEETPQAAVLAEVKEELSAEESFENKKNKIAELGMLLLSDPEANIKTLKDMLDICKDQNTKIVKLALLSLLAVFKDIIPGYRIRLPTEKELEMKISKEVKKTRFYESTLLKAYKSYLQKLIIFEKQSVYNQIANRCLCTLLEAVPHFNYRDNLLIAVVRNISSPDEVVRRLCCSTIRYLFSNEGKHGGELTVQAVRLIADHVKAHNCQLHPNAIEVFMSIRFDEDIGKPNKEDEHNKKYKKNNKRKTQEEQNQVQENERKKSKKDMMSKIRDEVSADHRGVTYEPDAKERRKMQTETLSAVFETYFRILRNTMYTIGERTEEIPTSNPGAFGSHPLLAPCLDGLAKFTQQLDLDYMGDLMNYLKKLASSSSSVSNNTKQKNSKLLTVSERLRCCLVAFKVMRSNLNALNVDLQDFFVQLYNLILEYRPGRDSGVILAESLKIMLCDDRHQDMQKAAAFVKRLATFALCFGCAESMSALVTLKTLLQKNVKCRNLLENDAGGGSVSGSIAKYQPYATDPNLSGALATVLWELSLLSKHYHPAISTMATTVSNMNTSQSQTFLSAVTPQQAFADFSLVKESFEPKNESRKLNNKRKRESLPEEAKNVPEIDMVKLSKKLKENFTILRDIKEDERVRMELLQSEEKKPLKKQNNVVKKKLKNPKSKKQI
As for B5, the binding result in assay [1] and in assay [2] was “binds” in each case.
